# Measured values: article PMC8197126
# The chains behind the UniProt entries cited, without tags or fusion partners.
# UniProt P09651: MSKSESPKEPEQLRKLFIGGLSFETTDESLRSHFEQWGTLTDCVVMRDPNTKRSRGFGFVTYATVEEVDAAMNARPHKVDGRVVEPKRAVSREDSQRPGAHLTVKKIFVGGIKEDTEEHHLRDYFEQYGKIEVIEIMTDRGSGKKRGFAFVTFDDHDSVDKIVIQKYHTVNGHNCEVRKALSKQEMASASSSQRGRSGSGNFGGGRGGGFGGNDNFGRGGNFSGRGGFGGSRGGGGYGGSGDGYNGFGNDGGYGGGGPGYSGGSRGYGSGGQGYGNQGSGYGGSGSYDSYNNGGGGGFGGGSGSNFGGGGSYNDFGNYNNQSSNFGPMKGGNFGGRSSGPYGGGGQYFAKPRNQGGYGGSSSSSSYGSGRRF
# UniProt P55884: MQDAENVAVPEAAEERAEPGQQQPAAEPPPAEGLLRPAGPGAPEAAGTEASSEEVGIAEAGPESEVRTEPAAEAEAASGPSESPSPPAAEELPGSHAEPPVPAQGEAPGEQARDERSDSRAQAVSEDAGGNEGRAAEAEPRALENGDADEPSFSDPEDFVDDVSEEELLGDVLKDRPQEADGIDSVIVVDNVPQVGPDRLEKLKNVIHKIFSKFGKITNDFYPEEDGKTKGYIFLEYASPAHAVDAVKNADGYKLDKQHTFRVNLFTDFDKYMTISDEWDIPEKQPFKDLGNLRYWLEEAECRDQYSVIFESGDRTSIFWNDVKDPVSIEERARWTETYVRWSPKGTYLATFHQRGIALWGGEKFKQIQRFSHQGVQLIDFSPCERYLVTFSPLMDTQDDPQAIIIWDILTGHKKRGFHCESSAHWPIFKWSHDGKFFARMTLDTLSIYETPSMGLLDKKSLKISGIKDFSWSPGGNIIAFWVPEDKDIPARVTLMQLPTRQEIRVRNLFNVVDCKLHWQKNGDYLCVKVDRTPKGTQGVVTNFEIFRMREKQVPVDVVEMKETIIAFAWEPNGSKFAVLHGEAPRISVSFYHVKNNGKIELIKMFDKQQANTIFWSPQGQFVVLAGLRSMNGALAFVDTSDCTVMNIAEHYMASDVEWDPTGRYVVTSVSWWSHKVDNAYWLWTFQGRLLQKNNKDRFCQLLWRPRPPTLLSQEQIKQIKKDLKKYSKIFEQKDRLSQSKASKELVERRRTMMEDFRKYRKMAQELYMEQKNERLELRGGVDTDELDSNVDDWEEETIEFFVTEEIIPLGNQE
# Results are given in words; binding and its absence hold for the method and conditions named. Binding seen in cells or lysates may run through a third protein. Some entries that bind do so weakly or less than the wild type.
# Target: Heterogeneous nuclear ribonucleoprotein (HNRNP) A1 (human (endogenous in HEK293A)) (UniProt P09651)
# Assay: co-IP; HEK293A cells, immunoprecipitation with an antibody for HNRNP A1, immunoblot for endogenous EIF3B
substance,measurement,value
translation initiation factor EIF3B (from UniProt P55884 1-814),binding,binds
